# Results are given in words; binding and its absence hold for the method and conditions named. Some binding calls cover weakened binding; strength is not graded here.
# Sequences of proteins named here, by UniProt entry; tags and fusion partners are left off. A change or cut given only in a name is not applied to a line headed by its entry.
# UniProt P01137: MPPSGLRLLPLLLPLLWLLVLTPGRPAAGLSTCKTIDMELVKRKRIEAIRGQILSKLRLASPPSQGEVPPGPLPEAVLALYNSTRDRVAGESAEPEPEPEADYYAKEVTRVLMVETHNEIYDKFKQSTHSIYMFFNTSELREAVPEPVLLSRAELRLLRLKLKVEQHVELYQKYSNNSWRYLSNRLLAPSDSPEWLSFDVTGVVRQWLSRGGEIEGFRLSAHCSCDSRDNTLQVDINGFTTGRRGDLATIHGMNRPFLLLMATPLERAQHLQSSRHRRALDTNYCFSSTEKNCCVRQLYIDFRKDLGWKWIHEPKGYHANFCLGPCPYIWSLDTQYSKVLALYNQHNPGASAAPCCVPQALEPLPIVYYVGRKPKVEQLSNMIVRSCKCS
# Legend:
# [1] = biological target: TGF-β1-LAP (C33S/N176Q) (amino acid residues at position-30 to position-390) (human) (UniProt P01137); assay: X-ray crystal structure (Reference Example)
# [2] = biological target: TGF-β1-LAP (C33S/N176Q) (amino acid residues at position-30 to position-390) (human) (UniProt P01137); assay: complex formation, gel filtration
# [3] = biological target: TGF-β1-LAP (C33S/N176Q) (amino acid residues at position-30 to position-390) (human) (UniProt P01137); assay: X-ray crystal structure, 2.93 Å
# [4] = biological target: TGF-β1-LAP (amino acid residues at position-30 to position-390) with mutation R278A (human) (UniProt P01137); assay: hybridoma screening ELISA
Binder,binding [1],binding [2],binding [3],binding [4]
A2D109 antibody Fv fragment (protein) VH: EVQLQQSGAELVRPGASVKLSCKASGYTFTSYWMNWVKQRPGQGLEWIGMIDPSDSETHYNQMFKDKATLTVDKSSSTAYMQLSSLTSEDSAVYYCVNWPYALDYWGQGTSVTVSS VL: QIVLTQSPAIMSASPGEKVTMTCSASSSVSYMHWFQQKPGTSPKLWIYSTSNLASGVPARFSGSGSGTSYSLTISRMEAEDAATYYCQQRSSYPFTFGSGTKLEIKRA,binds,binds,binds,–
"anti-LAP-D antibody (A10) (antibody, mouse IgG1, kappa, V domains shown, Biotin-labelled when used as ELISA detection antibody; immobilised on a CM5 chip in SPR; also called isolated monoclonal antibody of the present embodiment) VH: QVQLQQPGAELVRPGASVKLSCKTSGYSFTRFWMNWVRQRPGQGLEWIGMIHSSDSITRLNQKFKDKATLTLDYSSSTAYMQLSSPTSEDSAVYYCARGYDEYSAMDYWGQGTSVPVSS VL: DIQMTQSPSSLSASLGERVSLTCRASHEISGYLGWLQRQPDGTIKRLIYAASTLDSGVPKRFSGSRSGSDYSLTISSLESEDFADYYCLQYASYPFTFGSGTKLEVKR",–,–,–,binds
